The values that follow come from article PMC6925144, “A prospective compound screening contest identified broader inhibitors for Sirtuin 1” (Scientific Reports, 2019).

By UniProt entry, the sequences of proteins in these tests, tags left out. Residues count along the entry.
UniProt Q96EB6, 2-747 limits assumed: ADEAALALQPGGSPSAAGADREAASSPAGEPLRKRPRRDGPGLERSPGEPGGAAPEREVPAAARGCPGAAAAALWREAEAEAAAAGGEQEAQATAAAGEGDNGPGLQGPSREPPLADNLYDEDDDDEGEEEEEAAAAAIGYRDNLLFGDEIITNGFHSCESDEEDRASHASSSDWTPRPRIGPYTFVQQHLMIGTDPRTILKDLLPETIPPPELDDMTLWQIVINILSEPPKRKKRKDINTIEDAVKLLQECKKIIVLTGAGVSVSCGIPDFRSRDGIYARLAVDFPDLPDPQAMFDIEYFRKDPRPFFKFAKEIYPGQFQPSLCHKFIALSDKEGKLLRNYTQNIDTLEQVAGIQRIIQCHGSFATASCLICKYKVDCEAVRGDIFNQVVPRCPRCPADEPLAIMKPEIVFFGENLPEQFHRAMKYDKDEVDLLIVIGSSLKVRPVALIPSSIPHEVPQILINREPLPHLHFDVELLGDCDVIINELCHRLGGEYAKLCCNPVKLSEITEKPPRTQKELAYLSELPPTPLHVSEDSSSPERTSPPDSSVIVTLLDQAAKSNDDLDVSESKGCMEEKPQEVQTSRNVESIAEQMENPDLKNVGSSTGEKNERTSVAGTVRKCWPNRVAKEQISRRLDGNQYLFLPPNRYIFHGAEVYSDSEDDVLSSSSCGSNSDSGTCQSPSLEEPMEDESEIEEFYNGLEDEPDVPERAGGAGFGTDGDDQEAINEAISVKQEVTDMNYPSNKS

Over roughly 3,200 compounds, “TSA(without NAD+) / Primary screening (TSA) / delta Tm (K)” has its median near -0.07; the highest 2% begin near 0.37. Some of the results follow.

The assay concerns the target NAD-dependent deacetylase Sirtuin 1 (human, UniProt Q96EB6). As to the kind of experiment: primary screen, delta tm. Further details: single well (n = 1). To be noted: 10 µM. The method, boiled down: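 Thermal shift of Sirtuin 1 measured without NAD+, compound at 10 µM (n = 1); value is ΔTm, with hits defined as ΔTm > 0.45 K or < −1.5 K. Hits retested at 5, 10, 20 µM (n = 4) and counterscreened on bovine carbonic anhydrase and ABL1 SH2 domain.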
In the case of `COc1cc(C(=O)N(C)Cc2ccc(C(N)=O)cc2)cc(OC)c1OC`, the “TSA(without NAD+) / Primary screening (TSA) / delta Tm (K)” value was 0.15 K.
With `COC(=O)CCC(NC(=O)OC(C)(C)C)C(=O)Nc1cccc(C(N)=O)c1C` (stereo not drawn) the figure was -0.18 K.
With `CCSCCOC(=O)c1ccc2[nH]c(C(F)F)nc2c1`, the “TSA(without NAD+) / Primary screening (TSA) / delta Tm (K)” value is listed as -0.04 K.
With `CCCC(=O)CN` the figure was -0.14 K.
Take `CCCOc1ccc(C(=O)C2=C(O)C(=O)N(CCCN3CCOCC3)C2c2cccnc2)cc1` (stereo not drawn): the “TSA(without NAD+) / Primary screening (TSA) / delta Tm (K)” value is given as -0.02 K.
For `O=C1CCCN1c1cccc(NS(=O)(=O)c2ccc3nc[nH]c(=O)c3c2)c1`, the “TSA(without NAD+) / Primary screening (TSA) / delta Tm (K)” value is 0.09 K.
With `CC(C)NCCOCCN` the figure was -0.08 K; with `COc1ccc(N(C)S(=O)(=O)c2cccc(C(=O)Nc3ncc(C(N)=O)s3)c2)cc1`, 0.06 K.
With `c1ccc(CN2CCCC2)c(CNc2ncnc3sccc23)c1` the figure was 0.06 K; with `CC(=O)N1CCCc2cc(S(=O)(=O)N3c4ccccc4CCC3C)ccc21` (stereo not drawn), -0.18 K; with `Oc1ccccc1/C=N/c1ccccc1O`, -0.13 K.
As to `O=C(O)c1nn(Cc2ccccc2)c(=O)c2ccccc12`, the “TSA(without NAD+) / Primary screening (TSA) / delta Tm (K)” value is recorded as -0.28 K.
Consider `Cc1nc(S)sc1CC(=O)Nc1ccc(F)cc1`, for which the “TSA(without NAD+) / Primary screening (TSA) / delta Tm (K)” value is given as -0.11 K.
With `COc1cc(C(=O)Nc2cccc(S(=O)(=O)NCc3ccco3)c2)ccc1OCc1ccccc1`, the “TSA(without NAD+) / Primary screening (TSA) / delta Tm (K)” value was found to be 0.03 K.
In the case of `COc1cccc(C(=O)C2=C(O)C(=O)N(CCCN3CCOCC3)C2c2ccccc2F)c1` (stereo not drawn), the “TSA(without NAD+) / Primary screening (TSA) / delta Tm (K)” value was -0.17 K.
With `O=c1[nH]c(S)nc2c1cnn2-c1ccccc1` the figure was -0.21 K; with `CC(CNCCS(=O)(=O)C(C)(C)C)c1ccccc1` (stereo not drawn), -0.04 K; with `COc1ccc(NC(=O)C(=O)c2c(C)nn(-c3ccccc3)c2C)cc1OCc1cn2ccccc2n1`, -0.07 K.
With `CN(C)CCOc1ccc(C(N)=S)cc1` the figure was -0.17 K.
With `O=C(NCc1cccc(NC(=O)C2CC2)c1)c1ccc(C(=O)c2ccccc2)cc1` the figure was -0.11 K.
In the case of `CC(C)C(NS(=O)(=O)/C=C/c1ccccc1)C(=O)O` (stereo not drawn), the “TSA(without NAD+) / Primary screening (TSA) / delta Tm (K)” value turned out to be 0.05 K.
With `COc1ccccc1N1C(=O)CC(Nc2ccc(C(=O)O)cc2)C1=O` (stereo not drawn) the figure was -0.05 K; with `NC(=O)c1ccnc(N2CCN(CCO)CC2)c1`, 0.02 K.
With `C=CCNc1ccc2nnc(C(F)(F)F)n2n1` the figure was -0.12 K; with `CN(c1ccccc1)S(=O)(=O)c1cccc(NCC(=O)Nc2ccc(Br)cc2)c1`, -0.08 K.
With `Cc1ccc(N(C)S(=O)(=O)c2cccc(C(=O)Nc3ccccc3C(F)(F)F)c2)cc1` the figure was -0.13 K.
Turning to `Cc1onc(-c2ccccc2)c1-c1nnc(CN2C(=O)c3ccc([N+](=O)[O-])cc3C2=O)o1`, the “TSA(without NAD+) / Primary screening (TSA) / delta Tm (K)” value is -0.08 K.
As to `CCC(N)C(N)=O` (stereo not drawn), the “TSA(without NAD+) / Primary screening (TSA) / delta Tm (K)” value is given as -0.22 K.
Turning to `Cn1c(=O)c2c(ncn2CC(=O)OCc2cc(=O)n3c(n2)sc2ccccc23)n(C)c1=O`, the “TSA(without NAD+) / Primary screening (TSA) / delta Tm (K)” value is -0.05 K.
With `O=C(CSc1nnc(NCc2ccco2)s1)N1CCN(Cc2cccc3ccccc23)CC1` the figure was -0.13 K.
As for `CN(c1ccccc1)S(=O)(=O)c1cccc(C(=O)Nc2ccc(Br)cc2Cl)c1`, the “TSA(without NAD+) / Primary screening (TSA) / delta Tm (K)” value is reported as 0.06 K.
As for `CCc1ccc2c(COC(=O)c3cccc(S(=O)(=O)N(C)c4ccccc4)c3)cc(=O)oc2c1`, the “TSA(without NAD+) / Primary screening (TSA) / delta Tm (K)” value is given as -0.08 K.
With `O[C@@H]1CCN(c2ncnc3ccsc23)C1` the figure was -0.02 K; with `COc1cccc(C2=N/C(=C/c3cccnc3)C(=O)O2)c1`, -0.02 K.
With `O=C(CSc1nnc(NCc2ccco2)s1)Nc1ccc(N2CCCC2=O)cc1` the figure was -0.23 K; with `COc1ccnc(N(C)C[C@H](O)CO)n1`, -0.12 K; with `COc1cc(-c2nc(-c3ccccc3)c(-c3ccccc3)[nH]2)ccc1OS(=O)(=O)c1ccc(C)cc1`, 0.32 K.
With `Cn1c(=O)c2ccccc2n2c(COC(=O)Cn3nc(-c4ccc(F)cc4)oc3=O)nnc12` the figure was -0.13 K.
Take `C=CCCCCN`: the “TSA(without NAD+) / Primary screening (TSA) / delta Tm (K)” value is given as 0.06 K.
With `Cc1cc(CSc2nc3ccccc3[nH]2)no1` the figure was 0.07 K.
With `O=C(Nc1cc2c(=O)[nH]cnc2cc1F)c1cccc(Cl)c1F` the figure was 0.09 K; with `NC(=O)c1ccc(COC(=O)c2ccccc2NC(=O)c2ccco2)cc1`, -0.15 K.
For the compound `CC(N)(CN)C1CC1` (stereo not drawn), the “TSA(without NAD+) / Primary screening (TSA) / delta Tm (K)” value stood at 0.15 K.
In the case of `CC1(c2cccc(NC(=O)c3ccc4c(c3)CCC4)c2)NC(=O)NC1=O` (stereo not drawn), the “TSA(without NAD+) / Primary screening (TSA) / delta Tm (K)” value is given as -0.04 K.
As for `Cc1ccccc1OC(=O)C1CCN(S(=O)(=O)c2cc(C(N)=O)n(C)c2)CC1`, the “TSA(without NAD+) / Primary screening (TSA) / delta Tm (K)” value was -0.07 K.
With `Cc1cccc(Cl)c1OCC(=O)NCC(F)(F)F` the figure was -0.02 K; with `c1nc(N2CCCC3(C2)OCCO3)c2sccc2n1`, -0.03 K; with `Cc1ccc(C)n1-c1sc2c(c1C#N)CCCC2`, -0.17 K.
